Measured values taken from doi:10.1101/2025.05.02.651838.
These are yes or no findings as the source states them, for the method shown. Binding seen in cells or lysates may run through a third protein. Some entries that bind do so weakly or less than the wild type. For part of these data: Where a sequence is shown, tags or fusion partners need not be part of it.

B1: PP4R2 (protein, UniProt Q9NY27 1-417)
chain: MDVERLQEALKDFEKRGKKEVCPVLDQFLCHVAKTGETMIQWSQFKGYFIFKLEKVMDDFRTSAPEPRGPPNPNVEYIPFDEMKERILKIVTGFNGIPFTIQRLCELLTDPRRNYTGTDKFLRGVEKNVMVVSCVYPSSEKNNSNSLNRMNGVMFPGNSPSYTERSNINGPGTPRPLNRPKVSLSAPMTTNGLPESTDSKEANLQQNEEKNHSDSSTSESEVSSVSPLKNKHPDEDAVEAEGHEVKRLRFDKEGEVRETASQTTSSEISSVMVGETEASSSSQDKDKDSRCTRQHCTEEDEEEDEEEEEESFMTSREMIPERKNQEKESDDALTVNEETSEENNQMEESDVSQAEKDLLHSEGSENEGPVSSSSSDCRETEELVGSNSSKTGEILSESSMENDDEATEVTDEPMEQD
B2: PP4C (the catalytic subunit of protein phosphatase 4) (protein, UniProt P60510 1-307)
chain: MAEISDLDRQIEQLRRCELIKESEVKALCAKAREILVEESNVQRVDSPVTVCGDIHGQFYDLKELFRVGGDVPETNYLFMGDFVDRGFYSVETFLLLLALKVRYPDRITLIRGNHESRQITQVYGFYDECLRKYGSVTVWRYCTEIFDYLSLSAIIDGKIFCVHGGLSPSIQTLDQIRTIDRKQEVPHDGPMCDLLWSDPEDTTGWGVSPRGAGYLFGSDVVAQFNAANDIDMICRAHQLVMEGYKWHFNETVLTVWSAPNYCYRCGNVAAILELDEHLQKDFIIFEAAPQETRGIPSKKPVADYFL

How the values were obtained:
Flag-PP4R3B = Flag-PP4R3B (UniProt Q5MIZ7); assay: co-IP
C-Flag-PP4R3A = molecular target: T1, C-Flag-PP4R3A (UniProt Q6IN85); assay: co-IP
T1 sequence: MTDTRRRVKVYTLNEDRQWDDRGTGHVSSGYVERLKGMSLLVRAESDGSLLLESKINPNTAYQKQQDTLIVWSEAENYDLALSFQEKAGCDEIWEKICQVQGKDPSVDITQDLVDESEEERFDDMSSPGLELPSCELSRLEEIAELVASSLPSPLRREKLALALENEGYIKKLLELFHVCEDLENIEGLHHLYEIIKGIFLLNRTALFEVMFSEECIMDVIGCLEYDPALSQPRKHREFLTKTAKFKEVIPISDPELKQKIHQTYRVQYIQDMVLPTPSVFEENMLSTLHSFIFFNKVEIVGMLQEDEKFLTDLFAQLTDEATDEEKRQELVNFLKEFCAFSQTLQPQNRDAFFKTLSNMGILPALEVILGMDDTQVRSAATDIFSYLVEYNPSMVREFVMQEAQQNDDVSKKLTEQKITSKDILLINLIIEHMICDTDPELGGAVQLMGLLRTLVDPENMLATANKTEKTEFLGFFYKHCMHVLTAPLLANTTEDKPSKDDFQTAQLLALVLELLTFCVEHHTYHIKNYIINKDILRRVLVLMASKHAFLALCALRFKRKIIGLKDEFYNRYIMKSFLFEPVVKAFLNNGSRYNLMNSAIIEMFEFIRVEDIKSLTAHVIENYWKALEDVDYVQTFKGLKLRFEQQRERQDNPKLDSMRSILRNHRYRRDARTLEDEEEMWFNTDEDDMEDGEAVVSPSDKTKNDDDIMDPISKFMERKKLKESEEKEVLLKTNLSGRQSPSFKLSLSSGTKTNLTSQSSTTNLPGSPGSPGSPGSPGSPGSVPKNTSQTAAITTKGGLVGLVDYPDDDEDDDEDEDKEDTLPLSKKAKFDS

Binder | binding (Flag-PP4R3B) | binding (C-Flag-PP4R3A)
B1 | binds | binds
B2 | binds | –
